Experimental data as given in paper doi:10.1101/2025.05.12.653458.

Columns and labels:
[1] = molecular target: T1, RFP-AtVPS52 (Arabidopsis) (UniProt Q94KD3); test: co-IP
T1 sequence: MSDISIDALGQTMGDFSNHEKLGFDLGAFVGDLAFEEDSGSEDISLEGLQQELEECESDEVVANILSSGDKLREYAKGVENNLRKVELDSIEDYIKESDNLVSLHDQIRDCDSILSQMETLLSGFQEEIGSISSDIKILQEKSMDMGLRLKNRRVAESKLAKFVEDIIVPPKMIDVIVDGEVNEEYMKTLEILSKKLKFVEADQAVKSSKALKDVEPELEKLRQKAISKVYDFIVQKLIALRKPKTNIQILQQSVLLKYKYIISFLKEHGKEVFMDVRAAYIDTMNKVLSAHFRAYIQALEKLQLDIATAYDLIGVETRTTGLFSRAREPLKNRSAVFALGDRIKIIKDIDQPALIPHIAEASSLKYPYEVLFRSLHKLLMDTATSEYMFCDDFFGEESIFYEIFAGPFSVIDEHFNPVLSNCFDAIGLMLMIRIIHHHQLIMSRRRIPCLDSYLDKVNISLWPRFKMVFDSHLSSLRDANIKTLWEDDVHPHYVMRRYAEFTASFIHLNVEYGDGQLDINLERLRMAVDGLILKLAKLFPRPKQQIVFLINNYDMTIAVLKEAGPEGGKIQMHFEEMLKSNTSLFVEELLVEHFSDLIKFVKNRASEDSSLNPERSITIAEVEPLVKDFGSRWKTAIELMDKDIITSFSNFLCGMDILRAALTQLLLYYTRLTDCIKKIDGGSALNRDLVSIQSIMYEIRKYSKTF

[2] = molecular target: T2, His-AtVPS52 1-170 (Arabidopsis) (UniProt Q94KD3); test: pull-down
T2 sequence: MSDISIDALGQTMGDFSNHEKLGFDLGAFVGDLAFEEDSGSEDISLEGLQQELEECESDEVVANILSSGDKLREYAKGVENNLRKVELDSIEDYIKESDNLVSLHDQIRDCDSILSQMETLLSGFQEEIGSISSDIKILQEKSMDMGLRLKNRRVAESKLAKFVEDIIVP

Substance	binding [1]	binding [2]
GFP-Mp1 (Myzus persicae)	binds	
GFP-Mp58 (Myzus persicae)	binds	
GST-Mp1 (Myzus persicae)		binds
myc-Mp1 (Myzus persicae)	binds	

These are yes or no findings as the source states them, for the method shown. Binding seen in cells or lysates may run through a third protein. Binding can be weak; no strength is given. For some of these results: Tags and fused reporters may be left off the sequences shown.
